# Cleaved PARP after 72 h of treatment

Data from the primary screen of doi:10.1371/journal.pone.0140310, rounded.

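The test systems are human melanoma cell lines, treated with two drugs together for 72 h and then stained and imaged. The read-out is the fraction of cleaved-PARP-positive nuclei, in % of that fraction in the DMSO control; 200 means twice the control level of this apoptosis marker. Every drug was used at one fixed concentration, the higher of two screened. The file gives one value for each pair and line, without errors, so small differences may be noise. Basal and induced levels differ widely between cell lines.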 Only some of the drugs and lines screened are listed, without regard to their results. A dash means that no value is listed here.

Drugs:
GW0742, 10 µM: Cc1cc(SCc2sc(-c3ccc(C(F)(F)F)c(F)c3)nc2C)ccc1OCC(=O)O
sorafenib, 2 µM: CNC(=O)c1cc(Oc2ccc(NC(=O)Nc3ccc(Cl)c(C(F)(F)F)c3)cc2)ccn1
cediranib, 2 µM: COc1cc2c(Oc3ccc4[nH]c(C)cc4c3F)ncnc2cc1OCCCN1CCCC1
selumetinib, 0.075 µM: Cn1cnc2c(F)c(Nc3ccc(Br)cc3Cl)c(C(=O)NOCCO)cc21
NVP-BEZ235, 0.02 µM: Cn1c(=O)n(-c2ccc(C(C)(C)C#N)cc2)c2c3cc(-c4cnc5ccccc5c4)ccc3ncc21
A-769662, 10 µM: N#Cc1c(O)c2c(-c3ccc(-c4ccccc4O)cc3)csc2[nH]c1=O
lestaurtinib, 0.02 µM: C[C@]12O[C@H](C[C@]1(O)CO)n1c3ccccc3c3c4c(c5c6ccccc6n2c5c31)CNC4=O

| # | Cell line | GW0742 + A-769662 | lestaurtinib + GW0742 | NVP-BEZ235 + A-769662 | NVP-BEZ235 + lestaurtinib | NVP-BEZ235 + selumetinib | cediranib + sorafenib |
|---|---|---|---|---|---|---|---|
| 1 | COLO 829 | 281 | 76.9 | 111 | 161 | 123 | 141 |
| 2 | A2058 | 119 | 113 | 124 | 193 | 65.4 | 77.8 |
| 3 | RVH-421 | 49.4 | 63.0 | 301 | 77.2 | 245 | 95.9 |
| 4 | COLO 800 | 198 | 211 | 65.5 | 76.2 | 107 | 38.7 |
| 5 | 501mel | 216 | 47.8 | 111 | - | - | - |
| 6 | COLO 792 | 102 | 128 | 106 | 511 | 146 | 109 |
| 7 | A101D | 67.8 | 264 | 103 | 96.7 | 113 | 113 |
| 8 | WM451Lu | 36.4 | 149 | 123 | 74.4 | 168 | 90.8 |
| 9 | A375 | 40.6 | 79.3 | 147 | 100 | 94.1 | - |
| 10 | WM1745 | 119 | - | - | 273 | 252 | 120 |
| 11 | MEL-HO | 46.6 | 105 | 600 | 65.8 | 57.5 | 68.9 |
| 12 | SK-MEL-2 | 120 | 161 | 164 | 135 | 251 | 136 |
| 13 | MZ2-MEL | 126 | 116 | 107 | 152 | 228 | 79.0 |
| 14 | G-361 | 53.4 | 110 | 150 | 215 | 256 | 22.4 |
| 15 | WM115 | 81.8 | 162 | 279 | 1010 | 227 | 82.7 |
| 16 | SK-MEL-28 | 111 | 63.2 | 102 | 241 | 62.3 | 112 |
| 17 | SK-MEL-30 | 88.4 | 55.8 | 128 | 91.1 | 215 | 141 |
| 18 | WM1716 | 15.6 | 86.4 | 184 | 23.2 | 121 | 104 |
| 19 | IST-MEL1 | 29.1 | 109 | 166 | 62.7 | 158 | 55.1 |
| 20 | UACC-257 | 15.0 | 25.6 | 30.1 | 118 | 47.6 | 40.1 |
| 21 | LOX IMVI | 145 | 220 | 177 | 164 | 50.2 | 71.6 |
| 22 | IPC-298 | 40.3 | 98.6 | 27.7 | 326 | 211 | 161 |
| 23 | WM3526 | 98.6 | 195 | 335 | 191 | 348 | 96.0 |
| 24 | WM3619 | 215 | 118 | 126 | 137 | 190 | 95.1 |
| 25 | SK-MEL-5 | 101 | 149 | 102 | 528 | 88.6 | 116 |
| 26 | C32 | 86.7 | 87.9 | 308 | 32.7 | 372 | 213 |
| 27 | RPMI-7951 | 80.2 | 44.0 | 68.8 | 61.4 | 106 | 32.2 |
| 28 | MeWo | 110 | 165 | 120 | 112 | 165 | 121 |
| 29 | UACC-62 | 104 | 13.3 | 245 | 193 | 317 | 189 |
| 30 | LB2518-MEL | 78.2 | 32.4 | 128 | 277 | 308 | 178 |

Some entries from above, unchanged:

Cell line	GW0742 + A-769662	lestaurtinib + GW0742	NVP-BEZ235 + A-769662	NVP-BEZ235 + lestaurtinib	NVP-BEZ235 + selumetinib	cediranib + sorafenib
SK-MEL-2	120	161	164	135	251	136
IPC-298	40.3	98.6	27.7	326	211	161
MEL-HO	46.6	105	600	65.8	57.5	68.9